The data set is described as follows: Broth in test tubes, sterile control (substrate without inoculum). Further details: key: positive (pink colour); negative (yellow colour). Particulars: NB, TBB, 0.1 mM, 37° C., 16 hours.

For the compound `COC(=O)[C@H]1O[C@@H](Oc2ccc3nc4ccc(=O)cc-4oc3c2)[C@H](O)[C@@H](O)[C@@H]1O` [Resorufin-beta-D-glucuronic acid methyl ester], the “Result, colour scored visually” value is given as “negative”.

For the origin of these results see patent publication US9127303B2, “Method for detection of beta-D-glucuronidase activity in a sample” (Biosynth AG, priority 2011, dated 2015).
